Values from PubChem BioAssay AID504804 (Drosophila RNAi Screening Center, 2011)

- Assay: 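Fly genes whose loss lessens doxorubicin-driven cell death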 (primary screen)
- System: Drosophila Kc cells
- Reagent: long dsRNA against Drosophila genes, 0.5 µg dsRNA per well
- Timing: 96 h (48 h knock-down, then 48 h drug)
- Challenge: doxorubicin 5 µg/ml for 48 h, added 48 h after dsRNA
- Detection: 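Luminescent ATP counts per replicate, not normalised, reflecting viable cells after 48 h dsRNA knock-down followed by 48 h of 5 µg/ml doxorubicin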
- Scale: raw ATP luminescence: higher = more viable cells, protection from doxorubicin
- Active means: 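Active when both duplicate wells lie at least 2 SD above the plate mean and protection is confirmed by rescreening and independent dsRNAs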
The deposit covers about 19,000 reagents; this is a random part of those that have a named target and a result. Over the whole deposit, 47 (0.25%) are marked active. 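Signals are raw, not normalised; exact z-scores behind calls not deposited; actives needed confirmation, so some wells reaching 2 SD are inactive.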 Unmarked entries are inactive. The numbers tell different reagents against one gene apart. A plus sign joins genes that one reagent is predicted to hit. Reagent sequences are not shown.

no.	gene knocked down	dsRNA no.	SD above plate mean	raw ATP luminescence, replicate 1	raw ATP luminescence, replicate 2
1	Tango1 (GeneID 33930)	1		1.14e5	80253
2	nullo (GeneID 31652)	1		44340	46670
3	Ubc4 (GeneID 39133)	1		44077	36733
4	CG6118 (GeneID 41884)	1		27420	22380
5	CG11267 (GeneID 39476)	1		1.01e5	80320
6	CG4362 (GeneID 42410)	1		40000	36260
7	SWIP (GeneID 32594)	1		3.11e5	2.37e5
8	CG8197 (GeneID 35912)	1		52140	75187
9	mora (GeneID 42874)	1		1.12e5	87610
10	gus (GeneID 35478)	1		56783	56653
11	gus (GeneID 35478)	2		44743	45717
12	rgr (GeneID 35843)	1		56540	38203
13	rgr (GeneID 35843)	2		48770	39147
14	CG10338 (GeneID 35124)	1		34370	21180
15	gammaSnap1 (GeneID 37842)	1		59140	54870
16	Src64B (GeneID 48973)	1		86003	97390
17	CG17260 (GeneID 33519)	1		1.08e5	78737
18	CG4116 (GeneID 31291)	1		55410	61530
19	CG14708 (GeneID 41383)	1		58587	50160
20	CG16952 (GeneID 32546)	1		3.54e5	3.07e5
21	Rpe (GeneID 35692)	1		63607	49167
22	cyp33 + CG34194	1		1.35e5	95747
23	cn (GeneID 35724)	1		41930	61470
24	brm (GeneID 39744)	1		71543	58343
25	CG7702 (GeneID 42242)	1		50953	54373
26	CG32266 (GeneID 317945)	1		1.57e5	1.69e5
27	CG14642 (GeneID 40532)	1		20270	21803
28	CG9799 (GeneID 41647)	1		39880	23943
29	Prosalpha7 (GeneID 36018)	1		61127	45177
30	CG18542 + CG32939	1		56367	35697
31	CG7059 (GeneID 42626)	1		69890	47320
32	Ntl (GeneID 34046)	1		1.84e5	2.29e5
33	Nct (GeneID 42964)	1		40617	41937
34	Pif1A (GeneID 8674049)	1		70433	58227
35	Pif1A (GeneID 8674049)	2		52133	54240
36	scro (GeneID 3355151)	1		2.58e5	2.54e5
37	scro (GeneID 3355151)	2		54450	70660
38	lky (GeneID 33006)	1		3.19e5	3.45e5
39	eRF3 (GeneID 34658)	1		73627	87713
40	Ilp4 (GeneID 39152)	1		79190	79667
41	CG6873 (GeneID 32861)	1		1.91e5	1.98e5
42	Lon (GeneID 40138)	1		25280	20963
43	nmdyn-D6 (GeneID 32396)	1		3.37e5	3.47e5
44	Trm7-34 (GeneID 42508)	1		55440	67380

4 entries from above, reformatted.
Nct (GeneID 42964): raw ATP luminescence, replicate 1 = 40617; raw ATP luminescence, replicate 2 = 41937
Pif1A (GeneID 8674049) #1: raw ATP luminescence, replicate 1 = 70433; raw ATP luminescence, replicate 2 = 58227
Pif1A (GeneID 8674049) #2: raw ATP luminescence, replicate 1 = 52133; raw ATP luminescence, replicate 2 = 54240
scro (GeneID 3355151) #1: raw ATP luminescence, replicate 1 = 2.58e5; raw ATP luminescence, replicate 2 = 2.54e5

The results go on.
no.	gene knocked down	dsRNA no.	SD above plate mean	raw ATP luminescence, replicate 1	raw ATP luminescence, replicate 2
45	stx (GeneID 32005)	1		82640	90470
46	stx (GeneID 32005)	2		1.93e5	2.21e5
47	CG30054 (GeneID 246420)	1		87780	92360
48	CG31637 (GeneID 33914)	1		1.38e5	86407
49	CG31637 (GeneID 33914)	2		22743	20127
50	Mkrn1 (GeneID 44131)	1		63280	67477
51	Takl1 (GeneID 318725)	1		1.22e5	1.40e5
52	SCaMC (GeneID 39415)	1		32177	36253
53	SCaMC (GeneID 39415)	2		70110	49737
54	mei-38 (GeneID 31104)	1		42260	50370
55	Act57B (GeneID 37368)	1		83417	75843
56	Nup154 (GeneID 34527)	1		78657	60093
57	nec (GeneID 45908)	1		53743	79263
58	GABPI (GeneID 33516)	1		1.08e5	75393
59	Tpl94D (GeneID 318658)	1		2.32e5	1.96e5
60	ND-B22 (GeneID 34747)	1		59443	65410
61	Spn31A (GeneID 34339)	1		45343	42700
62	CG34049 (GeneID 3885620)	1		1.53e5	1.78e5
63	Acp32CD (GeneID 34531)	1		40030	71103
64	Obp83cd (GeneID 40746)	1		66970	71530
65	Myo31DF (GeneID 34445)	1	at least 2 SD above plate mean (active)	1.38e5	1.06e5
66	CG12831 (GeneID 35631)	1		48373	60873
67	p (GeneID 41025)	1		62247	65597
68	TotZ (GeneID 117459)	1		1.68e5	1.90e5
69	Sec31 (GeneID 35877)	1		65893	52857
70	SPoCk (GeneID 40495)	1		57243	64680
71	SPoCk (GeneID 40495)	2		63627	66357
72	SPoCk (GeneID 40495)	3		70807	59907
73	SPoCk (GeneID 40495)	4		60543	53437
74	Orc1 (GeneID 35686)	1		1.65e5	1.96e5
75	CG1537 (GeneID 32037)	1		4.07e5	3.43e5
76	fos28F (retired record) (GeneID 34113)	1		39327	64067
77	mRpS7 (GeneID 34412)	1		91867	84273
78	CG10300 (GeneID 42798)	1		41250	67010
79	Lar (GeneID 35259)	1		2.65e5	2.41e5
80	Lar (GeneID 35259)	2		83280	61467
81	CG3611 (GeneID 37972)	1		37790	59593
82	CheA84a (GeneID 3771856)	1		71193	52527
83	Paip1 (GeneID 36913)	1		44997	54063
84	mRpL37 (GeneID 41293)	1		59600	60523
